Measured data: PubChem BioAssay AID1259405 (NCATS, 2018)
The whole screen tested about 50,000 reagents; below is a part drawn at random. About 4,000 of them (8%) were called active. 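Mouse siRNA library applied to hamster cells; one well for each siRNA.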 Reagents against one gene are numbered here. No sequences are given here.

Assay: 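Knock-downs that lift recombinant protein yield in hamster ovary cells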 (primary screen)
Cells: Chinese hamster CHO-K1 ovary cells with stable secreted eGFP expression
Knock-down reagent: single siRNA against mouse genes, 0.8 pmol siRNA per well (2 µl of 400 nM stock)
Time to read-out: 3 days
Detection: 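Per-well intracellular GFP measured by laser scanning cytometry, plus viability from ATP luminescence, each relative to plate median of non-targeting control wells, in %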
Scale: GFP, % of control: higher = more GFP per well, higher productivity; viability (ATP), % of control: higher = more viable cells (more ATP)
Active means: 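a knock-down is called active if GFP reaches 120% or more of non-targeting control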

gene	reagent	GFP, % of control	viability (ATP), % of control	Call
Zdhhc6 (GeneID 66980)	1	89.3	74.1	inactive
Zdhhc6 (GeneID 66980)	2	96.8	74.1	inactive
Zdhhc6 (GeneID 66980)	3	56.1	53.8	inactive
Dis3 (GeneID 72662)	1	75.1	43	inactive
Dis3 (GeneID 72662)	2	68.5	64.5	inactive
Dis3 (GeneID 72662)	3	91.3	60.9	inactive
Tas2r135 (GeneID 387512)	1	53.7	42.3	inactive
Tas2r135 (GeneID 387512)	2	47.3	61.7	inactive
Tas2r135 (GeneID 387512)	3	71.8	70.8	inactive
Chtop (GeneID 66511)	1	73.3	76.3	inactive
Chtop (GeneID 66511)	2	57.8	89.7	inactive
Chtop (GeneID 66511)	3	85.6	44.2	inactive
Zdhhc1 (GeneID 70796)	1	65.9	60.3	inactive
Zdhhc1 (GeneID 70796)	2	59.4	64.4	inactive
Zdhhc1 (GeneID 70796)	3	85.6	105	inactive
Klf13 (GeneID 50794)	1	74.2	58.5	inactive
Klf13 (GeneID 50794)	2	47.8	82.3	inactive
Klf13 (GeneID 50794)	3	76.2	94.6	inactive
Grwd1 (GeneID 101612)	1	56.2	76.8	inactive
Grwd1 (GeneID 101612)	2	168	67.9	active
Grwd1 (GeneID 101612)	3	93.7	70.9	inactive
Grwd1 (GeneID 101612)	4	123	90.8	active
Grwd1 (GeneID 101612)	5	96.2	76.1	inactive
Grwd1 (GeneID 101612)	6	63.2	76.7	inactive
Il25 (GeneID 140806)	1	95.7	70.9	inactive
Il25 (GeneID 140806)	2	39.1	54.5	inactive
Il25 (GeneID 140806)	3	144	57.6	active
Trim38 (GeneID 214158)	1	91.8	90.4	inactive
Trim38 (GeneID 214158)	2	74.9	79.2	inactive
Trim38 (GeneID 214158)	3	90.1	121	inactive
Kpna1 (GeneID 16646)	1	84.7	84.6	inactive
Kpna1 (GeneID 16646)	2	100	103	inactive
Kpna1 (GeneID 16646)	3	55.8	74	inactive
Etfrf1 (GeneID 67636)	1	58.4	72	inactive
Etfrf1 (GeneID 67636)	2	75	80.7	inactive
Etfrf1 (GeneID 67636)	3	94.3	107	inactive
Or4f15 (GeneID 258439)	1	83.4	78.8	inactive
Or4f15 (GeneID 258439)	2	38.8	50.4	inactive
Or4f15 (GeneID 258439)	3	26.4	74.1	inactive
Slc22a29 (GeneID 236293)	1	54.1	37.9	inactive
Slc22a29 (GeneID 236293)	2	72.4	64.6	inactive
Slc22a29 (GeneID 236293)	3	78.9	68.5	inactive
Star (GeneID 20845)	1	78.9	102	inactive
Star (GeneID 20845)	2	132	132	active
Star (GeneID 20845)	3	45.6	60.8	inactive
Tra2a (GeneID 101214)	1	105	66.9	inactive
Tra2a (GeneID 101214)	2	107	104	inactive
Tra2a (GeneID 101214)	3	165	119	active
Tra2a (GeneID 101214)	4	75.4	93.9	inactive
Tra2a (GeneID 101214)	5	79.2	58.1	inactive
Tra2a (GeneID 101214)	6	82.3	82.9	inactive
Vmn1r64 (GeneID 404285)	1	23.4	19.3	inactive
Vmn1r64 (GeneID 404285)	2	67	72	inactive
Vmn1r64 (GeneID 404285)	3	79.4	77.7	inactive
Cyp2a5 (GeneID 13087)	1	107	99.8	inactive
Cyp2a5 (GeneID 13087)	2	52.9	54.2	inactive
Cyp2a5 (GeneID 13087)	3	87	80.7	inactive
Gpld1 (GeneID 14756)	1	115	77.6	inactive
Gpld1 (GeneID 14756)	2	92.7	82.7	inactive
Gpld1 (GeneID 14756)	3	94.5	130	inactive
Gpr119 (GeneID 236781)	1	85.9	52.5	inactive
Gpr119 (GeneID 236781)	2	98.5	86.3	inactive
Gpr119 (GeneID 236781)	3	42.4	36.3	inactive
Oscp1 (GeneID 230751)	1	95.3	51.9	inactive
Oscp1 (GeneID 230751)	2	116	66.3	inactive
Oscp1 (GeneID 230751)	3	68.8	85.8	inactive
Isg20 (GeneID 57444)	1	58.3	77.1	inactive
Isg20 (GeneID 57444)	2	44.9	54.3	inactive
Isg20 (GeneID 57444)	3	108	65.4	inactive
Fam234a (GeneID 106581)	1	87.2	40.9	inactive
Fam234a (GeneID 106581)	2	95.4	78.1	inactive
Fam234a (GeneID 106581)	3	89.1	71.6	inactive
Pitpnm1 (GeneID 18739)	1	66.6	59.3	inactive
Pitpnm1 (GeneID 18739)	2	95.7	70.1	inactive
Mkrn2 (GeneID 67027)	1	73.7	89.9	inactive
Mkrn2 (GeneID 67027)	2	80.4	80.8	inactive
Mkrn2 (GeneID 67027)	3	38.4	55.1	inactive
Cdk9 (GeneID 107951)	1	57.2	65	inactive
Gpr39 (GeneID 71111)	1	115	44.7	inactive
Gpr39 (GeneID 71111)	2	57.1	86.1	inactive
Gpr39 (GeneID 71111)	3	140	85.5	active
Reps1 (GeneID 19707)	1	90.2	48.8	inactive
Reps1 (GeneID 19707)	2	194	102	active
Reps1 (GeneID 19707)	3	62.5	65.7	inactive

Entries above whose target name starts with I or i (6):
gene	reagent	GFP, % of control	viability (ATP), % of control	Call
Il25 (GeneID 140806)	1	95.7	70.9	inactive
Il25 (GeneID 140806)	2	39.1	54.5	inactive
Il25 (GeneID 140806)	3	144	57.6	active
Isg20 (GeneID 57444)	1	58.3	77.1	inactive
Isg20 (GeneID 57444)	2	44.9	54.3	inactive
Isg20 (GeneID 57444)	3	108	65.4	inactive
